PMC10896785
Results are given in words; binding and its absence hold for the method and conditions named. In cells and extracts the contact can be indirect. Some binding calls cover weakened binding; strength is not graded here. Blank lines part the entries; values can stand above or below the binder they belong to.

Amino acid sequences for entries named in this document (tags omitted).
UniProt P06537: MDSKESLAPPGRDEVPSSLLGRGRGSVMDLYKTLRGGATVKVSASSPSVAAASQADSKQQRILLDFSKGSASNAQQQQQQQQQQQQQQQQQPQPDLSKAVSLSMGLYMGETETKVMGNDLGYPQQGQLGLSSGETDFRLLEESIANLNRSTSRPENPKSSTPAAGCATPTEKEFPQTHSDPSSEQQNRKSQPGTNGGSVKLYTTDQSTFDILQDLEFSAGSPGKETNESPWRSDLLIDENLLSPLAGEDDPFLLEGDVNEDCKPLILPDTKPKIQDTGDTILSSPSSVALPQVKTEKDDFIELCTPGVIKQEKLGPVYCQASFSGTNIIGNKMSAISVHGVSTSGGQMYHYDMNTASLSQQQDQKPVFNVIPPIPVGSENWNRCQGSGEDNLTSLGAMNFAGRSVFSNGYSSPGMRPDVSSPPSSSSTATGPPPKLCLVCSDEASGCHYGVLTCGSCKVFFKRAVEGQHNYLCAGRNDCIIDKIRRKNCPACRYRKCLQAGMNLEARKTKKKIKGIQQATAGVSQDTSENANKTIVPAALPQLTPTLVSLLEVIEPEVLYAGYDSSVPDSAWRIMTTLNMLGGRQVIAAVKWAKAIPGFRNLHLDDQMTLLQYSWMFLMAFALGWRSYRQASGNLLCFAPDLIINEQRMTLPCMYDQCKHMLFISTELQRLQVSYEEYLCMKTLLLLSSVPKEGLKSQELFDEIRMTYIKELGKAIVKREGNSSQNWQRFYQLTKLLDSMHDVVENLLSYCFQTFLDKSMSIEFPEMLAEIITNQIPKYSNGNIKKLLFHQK
UniProt P19091: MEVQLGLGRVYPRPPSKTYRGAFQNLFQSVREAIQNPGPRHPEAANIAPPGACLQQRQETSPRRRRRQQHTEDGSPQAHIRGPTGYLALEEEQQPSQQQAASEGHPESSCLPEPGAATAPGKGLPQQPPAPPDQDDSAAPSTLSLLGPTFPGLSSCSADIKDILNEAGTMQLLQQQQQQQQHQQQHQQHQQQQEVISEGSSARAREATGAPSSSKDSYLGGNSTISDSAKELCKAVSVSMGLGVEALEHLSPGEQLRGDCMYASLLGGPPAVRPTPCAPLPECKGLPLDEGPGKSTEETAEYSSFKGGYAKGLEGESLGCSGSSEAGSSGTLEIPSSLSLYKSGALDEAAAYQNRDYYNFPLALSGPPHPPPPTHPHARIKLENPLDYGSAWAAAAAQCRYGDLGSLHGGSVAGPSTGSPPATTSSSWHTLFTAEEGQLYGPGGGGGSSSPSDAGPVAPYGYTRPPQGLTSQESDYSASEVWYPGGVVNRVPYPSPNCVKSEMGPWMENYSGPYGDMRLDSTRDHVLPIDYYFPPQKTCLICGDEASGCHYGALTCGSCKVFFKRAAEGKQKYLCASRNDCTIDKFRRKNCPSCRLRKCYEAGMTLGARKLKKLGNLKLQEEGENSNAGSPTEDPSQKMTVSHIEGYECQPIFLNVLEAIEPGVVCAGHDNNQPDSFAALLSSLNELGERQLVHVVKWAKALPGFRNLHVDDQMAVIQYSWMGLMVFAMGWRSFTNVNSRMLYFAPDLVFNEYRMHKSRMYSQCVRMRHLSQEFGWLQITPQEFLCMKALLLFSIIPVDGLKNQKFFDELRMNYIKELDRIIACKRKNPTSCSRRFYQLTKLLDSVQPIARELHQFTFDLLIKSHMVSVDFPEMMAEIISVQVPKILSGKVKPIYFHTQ

Experiments:
[1] = target: glucocorticoid receptor (GR), endogenous mouse brain (mouse (endogenous in brain)) (UniProt P06537); assay: co-IP; whole brain lysate (2 mg; PBS, 0.5% NP-40) of 12-month-old WT or Fkbp5^TPRmut homozygous males incubated overnight at 4 °C with GR affinity resin, anti-AR agarose resin or empty agarose beads; Western blot for GR, AR, Hsp90, FKBP51, FKBP52, PP5
[2] = target: androgen receptor (AR), endogenous mouse brain (mouse (endogenous in brain)) (UniProt P19091); assay: as above

binding [1]: binds
binding [2]: binds
B1: PP5, endogenous mouse brain (enzyme, UniProt Q60676 1-499)
chain: MAMAEGERTECAETPRDEPPADGTLKRAEELKTQANDYFKAKDYENAIKFYSQAIELNPGNAIYYGNRSLAYLRTECYGYALGDATRAIELDKKYIKGYYRRAASNMALGKFRAALRDYETVVKVKPNDKDAKMKYQECSKIVKQKAFERAIAGDEHRRSVVDSLDIESMTIEDEYSGPKLEDGKVTITFMKDLMQWYKDQKKLHRKCAYQILVQVKEVLCKLSTLVETTLKETEKITVCGDTHGQFYDLLNIFELNGLPSETNPYIFNGDFVDRGSFSVEVILTLFGFKLLYPDHFHLLRGNHETDNMNQIYGFEGEVKAKYTAQMYELFSEVFEWLPLAQCINGKVLIMHGGLFSEDGVTLDDIRKIERNRQPPDSGPMCDLLWSDPQPQNGRSVSKRGVSCQFGPDVTKAFLEENQLDYIIRSHEVKAEGYEVAHGGRCVTVFSAPNYCDQMGNKASYIHLQGSDLRPQFHQFTAVPHPNVKPMAYANTLLQLGMM

binding [1]: no binding
binding [2]: no binding
B2: FKBP51 K352A, R356A (Fkbp5^TPRmut knock-in mouse) (protein, UniProt Q64378 1-456)
chain: MTTDEGTSNNGENPAATMTEQGEDITTKKDRGVLKIVKRVGTSDEAPMFGDKVYVHYKGMLSDGKKFDSSHDRKKPFAFSLGQGQVIKAWDIGVSTMKKGEICHLLCKPEYAYGSAGHLQKIPSNATLFFEIELLDFKGEDLFEDSGVIRRIKRKGEGYSNPNEGATVKVHLEGCCGGRTFDCRDVVFVVGEGEDHDIPIGIDKALVKMQREEQCILYLGPRYGFGEAGKPKFGIDPNAELMYEVTLKSFEKAKESWEMDTKEKLTQAAIVKEKGTVYFKGGKYTQAVIQYRKIVSWLEMEYGLSEKESKASESFLLAAFLNLAMCYLKLREYNKAVECCDKALGLDSANEAGLYARGEAQLLMNDFESAKGDFEKVLAVNPQNRAARLQISMCQRKAKEHNERDRRVYANMFKKFAERDAKEEASKAGSKKAVEGAAGKQHESQAMEEGKAKGHV
